In paper PMC12040169 (PLOS Biology, 2025):
The other results are listed elsewhere or left out.

tested on: T1, CTL2-GFP (C. trachomatis L2/434/Bu, GFP-expressing); parameters: species or system HeLa; Intracellular C. trachomatis growth in HeLa cells, bulk GFP fluorescence relative to DMSO; details: bulk GFP, single well; 28.5 h, 10 µM; inhibitor
T1 construct: L2/434/Bu, GFP-expressing

Compound | % of control remaining
COc1ccc(OC[C@@H]2C3CCC(C3)N2C(=O)C2CC2)cc1 (stereo partly shown) [CBK284602] | 120.866%
CS(=O)(=O)N1CC2(CCN(Cc3nc4ccccc4[nH]3)CC2)c2ccccc21 [CBK126672] | 107.881%
CC(C)(C)OC(=O)N1CCCC(C(=O)NCCc2ccccn2)C1 (stereo not shown) [CBK304281] | 97.4433%
Cc1cc(C2CCCCCN2Cc2c(C)nn(C)c2C)no1 (stereo not shown) [CBK284846] | 114.092%
CC(C)c1cccc(C(C)C)c1OCC(O)CN1CCCCC1 (stereo not shown) [CBK003079T] | 145.397%
Cc1ccc(C(=O)N2C[C@H]3CC[C@](O)(c4ccc(F)cc4)[C@H]3C2)o1 [CBK285267] | 121.026%
CN1C(=O)COc2ccccc2C/C=C/C[C@@H]2[C@H]1CCCN2C(=O)CNS(C)(=O)=O [CBK292079] | 124.267%
CC(=O)N1CCc2ccc(NC(=O)c3cncc(-c4ccc(C(=O)N5CCOCC5)cc4)c3)cc21 [CBK160217] | 119.067%
COc1ccc(C(O)Cn2c(=N)n(CCN3CCCCC3)c3ccccc32)cc1 (stereo not shown) [CBK262930C] | 124.399%
Cc1oc(-c2ccccc2)nc1CCOc1ccc(NC(=O)c2ccc(Cl)cc2Cl)c(C(=O)O)c1 [CBK000168D] | 106.404%
CC(C)CNc1nc2c(c(=O)n(Cc3ccccc3)c(=O)n2C)n1Cc1ccccc1 [CBK293946] | 135.48%
COc1cccc(-c2cc3c(=S)[nH]ccn3n2)c1 [CBK288437] | 136.592%
O=S(=O)(c1ccccc1)N1CCCC1c1cccs1 (stereo not shown) [CBK057002] | 119.508%
OCCN1CCN(C2CCN(Cc3ccccc3Cl)CC2)CC1 [CBK264710] | 116.355%
CC(=O)N1C[C@@H]2OCC(=O)N(Cc3nccn3C)[C@@H]2C1 [CBK289668] | 122.713%
Cc1ccc(-c2nnc(NCc3cnn(C)c3C)o2)c(C)c1 [CBK306166] | 111.657%
COc1ccc(C(=O)N2CCC3(CCN(C(=O)Cc4c[nH]cn4)C3)C2)cc1OC (stereo not shown) [CBK131768] | 108.433%
CC(C)Cn1c(=O)[nH]c2ncc(-c3ccco3)nc21 [CBK064353] | 138.978%
Nc1ncc(-c2cccc(OC(F)(F)F)c2)nc1-c1ccc(F)c(Cl)c1 [CBK064021] | 79.1826%
CC(=O)N[C@H](C(=O)N1CCC2(C/C=C/C[C@H]3COCC[C@H]3NC(=O)[C@@H](CC(C)C)NC2=O)CC1)[C@@H](C)OC(C)(C)C [CBK292197] | 115.444%
COC(=O)c1ccc(-n2cccn2)c(C#Cc2cccnc2)c1 [CBK284525] | 159.868%
CC(Sc1ccccc1)C(=O)NC(C)(C)C (stereo not shown) [CBK026610] | 110.768%
CC(Oc1cccc(Cl)c1)C(=O)NN (stereo not shown) [CBK261207] | 93.433%
O=C(O)c1[nH]c2ccccc2c1NS(=O)(=O)c1ccc(Br)cc1 [CBK049878] | 102.012%
N#C/C(=C\c1cn(-c2ccccc2)nc1-c1ccc(S(=O)(=O)N2CCOCC2)cc1)c1nc2ccccc2c(=O)[nH]1 [CBK266343] | 211.714%

Molecules above that have a COOH group (two):
Compound | % of control remaining
Cc1oc(-c2ccccc2)nc1CCOc1ccc(NC(=O)c2ccc(Cl)cc2Cl)c(C(=O)O)c1 [CBK000168D] | 106.404%
O=C(O)c1[nH]c2ccccc2c1NS(=O)(=O)c1ccc(Br)cc1 [CBK049878] | 102.012%

Additional structures follow.

Compound | % of control remaining
Cc1ccc(OCc2nnc(SCc3cccc(C#N)c3)n2N)cc1C [CBK267420] | 138.373%
Cc1nn(C)c(C)c1NC(=O)CSc1nnc(-c2cccc(Br)c2)n1-c1ccccc1 [CBK267430] | 107.656%
O=C(Nc1ccc(Cl)cc1)N1CCCC(CO)C1 (stereo not shown) [CBK156047] | 112.829%
Cn1c(SCCC(=O)O)nnc1-c1ccc2c(c1)OCO2 [CBK269842] | 149.094%
COc1cc(OC)cc(C(=O)Nc2ccc(S(=O)(=O)Nc3nccs3)cc2)c1 [CBK261300] | 100.953%
N#CCCCN1CCC(Oc2nccnc2OCc2ccccc2C(F)(F)F)CC1 [CBK153636] | 138.197%
COc1ccc(CC(=O)N2C3CCC2CC(O)(c2ccco2)C3)cc1 (stereo not shown) [CBK284137] | 104.432%
O=C(CSc1nc(O)c2c(-c3ccccc3)csc2n1)NCCc1ccccc1 [CBK268077] | 116.144%
CCOc1ccc(CNCCc2ccc(S(N)(=O)=O)cc2)cc1 [CBK268090C] | 126.695%
COCCN1CCOC2(CCN(C(=O)c3ccc(C)cc3)CC2)C1c1ccccc1OC (stereo not shown) [CBK112657C] | 110.478%
CCN(CC)C(=O)N1CCC2(CC1)CC(=O)c1ccccc1O2 [CBK283495] | 104.342%
COCCNC(=O)c1ccc(-c2ccccc2CO)nc1N1CCOCC1 [CBK076559] | 119.747%
Cc1cccc(Cn2cnc(NC(=O)COc3ccc([N+](=O)[O-])c(C)c3)n2)c1 [CBK268177] | 113.078%
O=C(O)CN(Cc1ccccc1)Cc1ccccc1 [CBK260903] | 114.489%
CN1CCN(C(=O)Cn2c(-c3cccs3)cc3cccnc32)CC1 [CBK282558] | 115.506%
O=C(CC1(O)C(=O)N(CN2CCOCC2)c2ccccc21)c1ccc2c(c1)OCO2 (stereo not shown) [CBK269639] | 126.264%
O=C(c1ccc(OC(F)(F)F)cc1)N1CCN(c2nnnn2-c2ccccc2)CC1 [CBK296622] | 150.325%
COc1ccc(S(=O)(=O)NCCO)cc1-c1nnc2c3ccccc3c(C)nn12 [CBK266933] | 149.706%
COCCNc1nc(-c2cccc(Cl)c2Cl)ccc1C(=O)N(C)CCN(C)C [CBK105922] | 108.561%
Cn1c(=O)n(CC(=O)N2CCc3ccccc32)c2cccnc21 [CBK283792] | 109.898%
CN(C)CCN(C)c1cncc(-c2ccc(Cl)cc2)n1 [CBK065724] | 92.9322%
Cc1cc2c(=O)n(Cc3ccco3)c(SCc3nc4ccccc4[nH]3)nc2s1 [CBK268202] | 125.58%
CC(=O)OCc1ccc(CN2CCCCCC2c2cc(C)on2)o1 (stereo not shown) [CBK283004] | 122.872%
Cc1ccc(S(=O)(=O)NCc2c(-c3ccccc3)c3cc(Br)ccc3[nH]c2=O)cc1 [CBK265231] | 132.999%
